This test relates to P388 leukemia ip, CD2F1 mice, survival T/C. In words: NCI In Vivo Anticancer Drug Screen. Data for tumor model P388 Leukemia (intraperitoneal) in CD2F1 (CDF1) mice. To be noted: T/C endpoint: median survival time, higher T/C = longer survival.
Where [1] appears, read: dose: 240.0 mg/kg/injection, schedule: Q01DX005 (ip), vehicle: Klucel (hydroxypropylcellulose) (HPC).
Where [2] appears, read: dose: 25.0 mg/kg/injection, schedule: Q01DX009 (ip), vehicle: saline with Tween-80.
The mark [3] stands for this setting: dose: 100.0 mg/kg/injection, schedule: Q01DX009 (ip), vehicle: saline with Tween-80.
The mark [4] stands for this setting: dose: 200.0 mg/kg/injection, schedule: Q01DX009 (ip), vehicle: saline with Tween-80.
[5] abbreviates: dose: 6.25 mg/kg/injection, schedule: Q01DX009 (ip), vehicle: saline with Tween-80.
The mark [6] stands for this setting: dose: 12.5 mg/kg/injection, schedule: Q01DX009 (ip), vehicle: saline with Tween-80.
[7] abbreviates: dose: 50.0 mg/kg/injection, schedule: Q01DX009 (ip), vehicle: saline with Tween-80.
Where [8] appears, read: dose: 240.0 mg/kg/injection, schedule: Q01DX005 (ip), vehicle: saline with Tween-80.
[9] abbreviates: dose: 100.0 mg/kg/injection, schedule: Q01DX001 (ip), vehicle: saline with Tween-80.
Where [10] appears, read: dose: 200.0 mg/kg/injection, schedule: Q01DX001 (ip), vehicle: saline with Tween-80.
The mark [11] stands for this setting: dose: 400.0 mg/kg/injection, schedule: Q01DX001 (ip), vehicle: saline with Tween-80.
Setting [12] is: dose: 400.0 mg/kg/injection, schedule: Q04DX003 (ip), vehicle: saline.

Structures are written as SMILES. The list does not hold the whole screen: it is rich in T/C values a quarter to a half above the control, in often repeated tests (any T/C) and in doses without a T/C. Further doses and runs are listed elsewhere. T/C gives the treated animals as a percentage of the vehicle group. Some doses have a count of surviving animals in place of a T/C: the source files T/C as zero there, which appears to mark a toxic dose or a test without result, not a measured value. Some survivor counts are full or nearly so, which does not show that the dose was tolerated: the source hardly ever lists a survival T/C far under the control, and the zero likely stands for such cases as well. Survivors were counted at the toxicity check, usually on the fifth day, unless a day is given; later deaths do not show. Schedule codes are those of the source, taken here to give the interval after Q, in days (D) or hours (H), and the number of doses after X. Some doses were run more than once; the values are given in rising order. For survival time, this PubChem deposit counts one and a half times the control or more as active, and values a quarter to a half above the control carry no call in these data; other NCI protocols may use other cut-offs.

Turning to `COC(=O)C1(CC(=O)c2ccc(N3CCN(c4ccc(C(=O)CC5(C(=O)OC)NC(=S)NC(=O)C5C#N)cc4)CC3)cc2)NC(=S)NC(=O)C1C#N` (stereo not given), the survivor count is, setting by setting: (dose: 60.0 mg/kg/injection, schedule: Q01DX005 (ip), vehicle: Klucel (hydroxypropylcellulose) (HPC)) 6 of 6; (dose: 120.0 mg/kg/injection, schedule: Q01DX005 (ip), vehicle: Klucel (hydroxypropylcellulose) (HPC)) 6 of 6; under setting [1], 6 of 6.
Regarding `NC(=S)N/N=C\c1nccc2c(N)cccc12`, the T/C is 144 % of control (dose: 6.25 mg/kg/injection, schedule: Q01DX009 (ip), vehicle: saline); 136 % of control (dose: 9.4 mg/kg/injection, schedule: Q04DX003 (ip), vehicle: saline); 136 and 141 % of control under setting [2]; 135 % of control (dose: 25.0 mg/kg/injection, schedule: Q01DX009 (ip), vehicle: saline); 146 % of control (dose: 37.5 mg/kg/injection, schedule: Q04DX003 (ip), vehicle: saline); 130 % of control (dose: 75.0 mg/kg/injection, schedule: Q01DX009 (ip), vehicle: saline with Tween-80). The survivor count is listed as 5 of 6 (dose: 75.0 mg/kg/injection, schedule: Q01DX009 (ip), vehicle: saline); 9 of 10 under setting [3]; 8 of 10 (dose: 150.0 mg/kg/injection, schedule: Q01DX009 (ip), vehicle: saline with Tween-80); 7 of 10 under setting [4].
Turning to `Cn1cnc([N+](=O)[O-])c1Sc1ccc(Cl)cc1`, the survivor count was 6 of 6 under setting [5]; 6 of 6 under setting [6]; 6 of 6 under setting [2]; 6 of 6 under setting [7]; 6 of 6 under setting [3]; 6 of 6 under setting [4].
On to `C[O+]=c1ccc2ccc(-c3ccccc3)sc-2c1`, for which the survivor count under setting [1] was 6 of 6.
`CC(C)c1nccn1Cc1ccc(Cl)cc1Cl`: the survivor count under setting [8] is reported as 0 of 6.
With `C[C@H]1C(=O)CCC2[C@]3(C)CC4OC(=O)C5(CC[C@@]6(C)CCC(C)(C)CC6C45C)C3CC[C@@]21C` (stereo not given in full), the survivor count (dose: 16.5 mg/kg/injection, schedule: Q01DX005 (ip), vehicle: Klucel (hydroxypropylcellulose) (HPC)) is 6 of 6; the survivor count (dose: 33.0 mg/kg/injection, schedule: Q01DX005 (ip), vehicle: Klucel (hydroxypropylcellulose) (HPC)) is listed as 6 of 6; the survivor count (dose: 66.0 mg/kg/injection, schedule: Q01DX005 (ip), vehicle: Klucel (hydroxypropylcellulose) (HPC)) is recorded as 6 of 6.
For the molecule `CCO/C=C1/N=C(c2ccc(Cl)cc2)OC1=O`, the survivor count reads like this: (dose: 120.0 mg/kg/injection, schedule: Q01DX005 (ip), vehicle: saline with Tween-80) 4 of 6; under setting [8], 0 of 6.
`O=[N+]([O-])c1ccccc1N=Nc1c(-c2ccccc2)nn(C(=S)S)c1-c1ccccc1`: the survivor count is reported as 5 of 5 (dose: 100.0 mg/kg/injection, schedule: Q04DX002 (ip), vehicle: Klucel (hydroxypropylcellulose) (HPC)) and 4 of 5 (dose: 400.0 mg/kg/injection, schedule: Q04DX002 (ip), vehicle: Klucel (hydroxypropylcellulose) (HPC)).
`CCCCCCCCCCCCCCCCCCN(C)C`: the survivor count (dose: 100.0 mg/kg/injection, schedule: Q01DX009 (ip), vehicle: Klucel (hydroxypropylcellulose) (HPC)) was 1 of 6.
For the molecule `ClC1=CC(=N/Br)/C=CC/1=N/Br`, the survivor count (dose: 400.0 mg/kg/injection, schedule: Q01DX005 (ip), vehicle: saline with Tween-80) is 3 of 6 and 3 of 5.
As for `CCN(CC)CCNC(=O)c1nn(-c2ccc(Cl)cc2)c2c1CCc1cc(OC)ccc1-2`, the survivor count (dose: 100.0 mg/kg/injection, schedule: Q04DX003 (ip), vehicle: saline with Tween-80) is recorded as 6 of 6; the survivor count (dose: 200.0 mg/kg/injection, schedule: Q04DX003 (ip), vehicle: saline with Tween-80) is 0 of 6; the survivor count (dose: 400.0 mg/kg/injection, schedule: Q04DX003 (ip), vehicle: saline with Tween-80) is reported as 0 of 6.
Consider `Cc1cnc2ncn(Cc3c[nH]c(=O)[nH]c3=O)c(=O)c2c1`, for which the survivor count runs as follows: under setting [9], 1 of 6; under setting [10], 0 of 6; under setting [11], 0 of 6.
For the molecule `CC1CCC(C#N)C1=N` (stereo not given), the survivor count under setting [9] is recorded as 0 of 6, the survivor count under setting [10] is recorded as 0 of 6 and the survivor count under setting [11] is reported as 0 of 6.
For the molecule `ClCCc1ccn[nH]1`, the survivor count (dose: 400.0 mg/kg/injection, schedule: Q04DX002 (ip), vehicle: saline) was 6 of 6.
Regarding `CCS(=O)(=O)OCCF`, the survivor count was 0 of 6 under setting [5]; 0 of 6 and 6 of 6 under setting [6]; 0 of 6 under setting [2]; 0 of 6 under setting [7].
Take `C#CCOC(=O)C(Cl)(Cl)Cl`: the survivor count under setting [12] is given as 0 of 6.
For the molecule `O=Cc1ccccc1-c1ccccc1C=O`, the survivor count (dose: 400.0 mg/kg/injection, schedule: Q04DX002 (ip), vehicle: saline with Tween-80) is 5 of 6.
Consider `C[n+]1cccc(NC(=O)c2ccc(NC(=O)c3ccc(C(=O)Nc4ccc(NC(=N)N)cc4)cc3)cc2)c1`, for which the T/C (dose: 6.25 mg/kg/injection, schedule: Q04DX003 (ip), vehicle: saline) was 140 % of control. In addition, the survivor count is 4 of 6 (dose: 18.7 mg/kg/injection, schedule: Q01DX009 (ip), vehicle: saline); 2 of 6 (dose: 25.0 mg/kg/injection, schedule: Q04DX003 (ip), vehicle: saline); 0 of 6 (dose: 100.0 mg/kg/injection, schedule: Q04DX003 (ip), vehicle: saline); 0 of 6 (dose: 200.0 mg/kg/injection, schedule: Q04DX003 (ip), vehicle: saline); 0 of 6 under setting [12].
In the case of `Cc1cc(C)[s+]s1`, where the note is “dose: 200.0 mg/kg/injection, schedule: Q01DX009 (ip), vehicle: water”, the survivor count is 0 of 6.
With `CSc1cccc(NC(=O)N2CCN(c3ccccc3)CC2)c1`, the survivor count is, setting by setting: (dose: 50.0 mg/kg/injection, schedule: Q01DX009 (ip), vehicle: DMSO) 4 of 6; (dose: 100.0 mg/kg/injection, schedule: Q01DX009 (ip), vehicle: DMSO) 0 of 6; (dose: 200.0 mg/kg/injection, schedule: Q01DX009 (ip), vehicle: DMSO) 0 of 6.
As for `O=c1oc(-c2ccc(Cl)c([N+](=O)[O-])c2)ns1`, the survivor count (dose: 400.0 mg/kg/injection, schedule: Q01DX009 (ip), vehicle: Klucel (hydroxypropylcellulose) (HPC)) is on record as 3 of 6.
`C=CCC1=C(C2CO2)C(=O)c2ccccc2C1=O` (stereo not given): the survivor count (dose: 25.0 mg/kg/injection, schedule: Q01DX005 (ip), vehicle: Klucel (hydroxypropylcellulose) (HPC)) was 0 of 6; the survivor count (dose: 50.0 mg/kg/injection, schedule: Q01DX005 (ip), vehicle: Klucel (hydroxypropylcellulose) (HPC)) was 0 of 6; the survivor count (dose: 100.0 mg/kg/injection, schedule: Q01DX005 (ip), vehicle: Klucel (hydroxypropylcellulose) (HPC)) was 0 of 6; the survivor count (dose: 200.0 mg/kg/injection, schedule: Q01DX005 (ip), vehicle: Klucel (hydroxypropylcellulose) (HPC)) was 0 of 6.
As to `CC1=C(c2ccccc2)OC(c2ccccc2)=C[P+]1(c1ccccc1)c1ccccc1`, the survivor count is, setting by setting: (dose: 6.25 mg/kg/injection, schedule: Q01DX005 (ip), vehicle: saline) 2 of 5; (dose: 12.5 mg/kg/injection, schedule: Q01DX005 (ip), vehicle: saline) 0 of 5; (dose: 25.0 mg/kg/injection, schedule: Q01DX005 (ip), vehicle: saline) 0 of 5; (dose: 50.0 mg/kg/injection, schedule: Q01DX005 (ip), vehicle: saline) 0 of 5.

For the origin of these results see PubChem BioAssay AID330 (DTP/NCI, 2004).
